Laboratory results as given in patent US7615356B2, “Ion channel assay methods” (Vertex Pharmaceuticals (San Diego) LLC, priority 2000, dated 2009).
Read-outs that look alike come from different tables or passages of the source.

Protein sequences, listed by entry. Tags and fused reporters are not part of them.
UniProt A0A8C2MK62, entry or part of it: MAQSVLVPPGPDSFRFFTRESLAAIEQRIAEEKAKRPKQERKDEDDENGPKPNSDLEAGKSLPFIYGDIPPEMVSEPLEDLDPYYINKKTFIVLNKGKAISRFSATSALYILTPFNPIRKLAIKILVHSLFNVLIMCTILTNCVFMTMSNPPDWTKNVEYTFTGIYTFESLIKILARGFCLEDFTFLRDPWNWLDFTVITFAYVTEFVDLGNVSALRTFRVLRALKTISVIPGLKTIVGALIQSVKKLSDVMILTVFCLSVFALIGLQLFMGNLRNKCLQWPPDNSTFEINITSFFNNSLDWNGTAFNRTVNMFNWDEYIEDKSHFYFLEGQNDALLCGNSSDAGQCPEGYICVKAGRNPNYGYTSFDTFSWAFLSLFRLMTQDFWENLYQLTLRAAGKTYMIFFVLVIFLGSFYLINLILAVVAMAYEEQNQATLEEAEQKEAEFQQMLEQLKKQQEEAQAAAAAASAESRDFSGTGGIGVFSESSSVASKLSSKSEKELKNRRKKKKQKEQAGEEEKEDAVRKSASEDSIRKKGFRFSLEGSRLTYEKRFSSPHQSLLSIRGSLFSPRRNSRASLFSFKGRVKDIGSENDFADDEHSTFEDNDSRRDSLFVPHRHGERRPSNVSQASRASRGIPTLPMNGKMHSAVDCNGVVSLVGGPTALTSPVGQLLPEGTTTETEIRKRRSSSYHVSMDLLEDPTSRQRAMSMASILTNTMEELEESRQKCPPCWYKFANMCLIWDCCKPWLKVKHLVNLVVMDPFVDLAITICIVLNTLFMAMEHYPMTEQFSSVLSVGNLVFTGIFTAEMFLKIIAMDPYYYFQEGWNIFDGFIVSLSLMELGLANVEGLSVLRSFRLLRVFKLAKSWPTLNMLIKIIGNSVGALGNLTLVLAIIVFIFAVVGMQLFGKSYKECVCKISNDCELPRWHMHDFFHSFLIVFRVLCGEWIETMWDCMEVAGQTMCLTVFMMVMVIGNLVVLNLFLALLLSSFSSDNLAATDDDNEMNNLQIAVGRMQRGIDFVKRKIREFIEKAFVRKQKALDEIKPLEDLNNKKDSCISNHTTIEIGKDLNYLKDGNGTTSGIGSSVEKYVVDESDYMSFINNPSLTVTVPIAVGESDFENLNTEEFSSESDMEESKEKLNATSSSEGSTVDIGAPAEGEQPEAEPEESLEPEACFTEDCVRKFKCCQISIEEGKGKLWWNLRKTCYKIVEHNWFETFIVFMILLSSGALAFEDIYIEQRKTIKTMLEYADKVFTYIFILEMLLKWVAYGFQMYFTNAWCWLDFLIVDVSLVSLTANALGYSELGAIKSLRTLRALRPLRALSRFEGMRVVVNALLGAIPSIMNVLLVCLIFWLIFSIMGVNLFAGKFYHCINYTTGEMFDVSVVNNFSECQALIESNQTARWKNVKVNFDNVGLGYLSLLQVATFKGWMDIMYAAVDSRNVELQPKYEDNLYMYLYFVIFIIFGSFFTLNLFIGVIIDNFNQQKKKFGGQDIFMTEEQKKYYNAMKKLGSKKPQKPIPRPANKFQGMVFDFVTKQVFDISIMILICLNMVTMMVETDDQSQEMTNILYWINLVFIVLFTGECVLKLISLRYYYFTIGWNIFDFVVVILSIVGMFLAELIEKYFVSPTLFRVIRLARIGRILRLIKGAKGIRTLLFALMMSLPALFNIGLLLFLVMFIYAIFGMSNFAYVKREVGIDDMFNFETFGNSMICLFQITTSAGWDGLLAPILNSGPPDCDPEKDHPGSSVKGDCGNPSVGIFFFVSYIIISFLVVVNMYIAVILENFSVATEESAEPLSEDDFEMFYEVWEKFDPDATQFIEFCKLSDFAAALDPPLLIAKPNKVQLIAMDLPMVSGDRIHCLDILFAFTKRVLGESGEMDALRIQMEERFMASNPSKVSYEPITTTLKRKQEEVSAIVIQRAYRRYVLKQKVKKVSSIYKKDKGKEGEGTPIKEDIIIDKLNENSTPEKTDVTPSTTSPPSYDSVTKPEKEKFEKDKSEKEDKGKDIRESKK

Biological target: endogenous NaV channels of Chinese Hamster Ovary cells (Nav 1.2a) (Cricetulus griseus, UniProt A0A8C2MK62)
Test: Use-dependent block, repetitive electrical stimulation at 1 Hz, CHO cells
Format: cell-based

COc1ccc(CCN2CCC(Nc3nc4ccccc4n3Cc3ccc(F)cc3)CC2)cc1 [astemizole]
IC50 (read-out: IC50 @ 1st peak): 4120 ± 2030 nM
IC50 (read-out: IC50 @ 20th peak): 1830 ± 680 nM
